Patent US20250145665A1, “MACROCYCLIC PEPTIDES USEFUL AS MODULATORS OF TNF ALPHA” (Bristol-Myers Squibb Company, priority 2023, published 2025)
Some entries share one result that the patent states for a list of compounds. Starred links: 1 amine or outer side, 2 acyl side, 3 side chain; linkers in the order of their positions; H or OH if unused. Positions of bridges follow the written chain, without caps; N, C: chain ends. Non-standard residues stand in square brackets, D forms with d. Residues, ends and D or L forms follow the SMILES beside them. ξ: configuration not given here. *: point of attachment. Bip(4'-NHCO-C6H4-3-CH2COOH) = N[C@@H](Cc1ccc(-c2ccc(NC(=O)c3cccc(CC(=O)O)c3)cc2)cc1)C(=O)O; X34 = Cc1cc(C(=O)O)cc(C(=O)Nc2ccc(-c3ccc(C[C@H](N[*:1])C(=O)[*:2])cc3)cc2)c1; X56 = O=C(O)COc1cccc(NC(=O)c2ccc(-c3ccc(C[C@H](N[*:1])C(=O)[*:2])cc3)cc2)c1; X22 = O=C(O)COc1cccc(C(=O)N[C@@H](Cc2cn(CC(=O)O)c3ccccc23)C(=O)*)c1; Bip(4'-NH) = O=C([C@H](Cc1ccc(-c2ccc(N[*:3])cc2)cc1)N[*:1])[*:2]; X71 = O=C(O)Cn1cc(C[C@H](NC(=O)c2cccc(C(=O)O)c2)C(=O)*)c2ccccc21; Bip(4'-COOH) = N[C@@H](Cc1ccc(-c2ccc(C(=O)O)cc2)cc1)C(=O)O; X76 = O=C(O)CCC(=O)N[C@@H](Cc1cn(CC(=O)O)c2ccccc12)C(=O)*; Trp(1-CH2COOH) = N[C@@H](Cc1cn(CC(=O)O)c2ccccc12)C(=O)O; X11 = CC(=O)N[C@@H](Cc1cn(CC(=O)O)c2ccccc12)C(=O)*; Ala(imidazol-2-yl) = N[C@@H](Cc1ncc[nH]1)C(=O)O; Ala(morpholin-4-yl) = N[C@@H](CN1CCOCC1)C(=O)O; Benzoyl(3-OCH2COOH) = O=C(O)COc1cccc(C(=O)*)c1; X88 = CC(=O)N[C@@H](Cc1ccc(OCC(=O)O)cc1)C(=O)*; Bip = N[C@@H](Cc1ccc(-c2ccccc2)cc1)C(=O)O; X81 = N[C@@H](Cc1ccc(OCC(=O)O)cc1)C(=O)*; X60 = O=C(c1ccc2c(c1)CCc1ccccc1-2)*; X61 = O=C(c1ccc2c(c1)Cc1ccccc1-2)*; Cha = N[C@@H](CC1CCCCC1)C(=O)O; Tle = CC(C)(C)[C@H](N)C(=O)O; ξP = O=C(O)C1CCCN1; Sar = CNCC(=O)O

Sequences of proteins named here, by UniProt entry; tags and fusion partners are left off. Residues count along the entry.
UniProt P01375, 77-233 limits assumed: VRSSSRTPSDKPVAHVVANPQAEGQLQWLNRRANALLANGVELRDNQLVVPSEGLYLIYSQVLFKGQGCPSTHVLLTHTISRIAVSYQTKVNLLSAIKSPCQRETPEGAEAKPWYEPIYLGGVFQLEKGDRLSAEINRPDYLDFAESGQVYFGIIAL

Molecular target: TNFα (Homo sapiens, UniProt P01375)
Experiment: TNF-Induced HEK-Blue Assay
Format: cell-based
Conditions: summary statement for all examples; read-out: IC50 values measured in the TNF induced HEK-Blue assay

IC50, ≤ 25 µM:
CC[C@H](C)[C@@H]1NC(=O)[C@@H](CCCNC(=N)N)NC(=O)[C@H](CC(=O)O)NC(=O)[C@H](Cc2cnc[nH]2)NC(=O)CN(C)C(=O)[C@H](Cc2ccc(-c3ccc(NC(=O)[C@H](Cc4cn(CC(=O)O)c5ccccc45)NC(=O)CCC(=O)O)cc3)cc2)NC(=O)[C@H](Cc2ccc(-c3ccccc3)cc2)NC(=O)[C@H](CC2CCCCC2)NC(=O)CSC[C@@H](C(=O)NCC(N)=O)NC(=O)[C@H](CC(C)C)NC(=O)[C@H](Cc2ncc[nH]2)NC(=O)[C@H](C(C)C)NC(=O)[C@@H]2CCCN2C1=O [Example 413] ({CH2CO}-[Cha][Bip][Bip(4'-NH)](X76)[Sar]HD[dR]IPV[Ala(imidazol-2-yl)]LCG-NH2; thioether N-13)
CC[C@H](C)[C@@H]1NC(=O)[C@@H](CCCNC(=N)N)NC(=O)[C@H](CC(=O)O)NC(=O)[C@H](Cc2cnc[nH]2)NC(=O)CN(C)C(=O)[C@H](Cc2ccc(-c3ccc(NC(=O)[C@H](Cc4cn(CC(=O)O)c5ccccc45)NC(=O)c4cccc(OCC(=O)O)c4)cc3)cc2)NC(=O)[C@H](Cc2ccc(-c3ccccc3)cc2)NC(=O)[C@H](CC2CCCCC2)NC(=O)CSC[C@@H](C(=O)NCC(N)=O)NC(=O)[C@H](CC(C)C)NC(=O)[C@H](Cc2ncc[nH]2)NC(=O)[C@H](C(C)C)NC(=O)[C@@H]2CCCN2C1=O [Example 414] ({CH2CO}-[Cha][Bip][Bip(4'-NH)](X22)[Sar]HD[dR]IPV[Ala(imidazol-2-yl)]LCG-NH2; thioether N-13)
CC[C@H](C)[C@@H]1NC(=O)[C@@H](CCCNC(=N)N)NC(=O)[C@H](CC(=O)O)NC(=O)[C@H](Cc2cnc[nH]2)NC(=O)CN(C)C(=O)[C@H](Cc2ccc(-c3ccc(NC(=O)[C@H](Cc4cn(CC(=O)O)c5ccccc45)NC(=O)c4cccc(C(=O)O)c4)cc3)cc2)NC(=O)[C@H](Cc2ccc(-c3ccccc3)cc2)NC(=O)[C@H](CC2CCCCC2)NC(=O)CSC[C@@H](C(=O)NCC(N)=O)NC(=O)[C@H](CC(C)C)NC(=O)[C@H](Cc2ncc[nH]2)NC(=O)[C@H](C(C)C)NC(=O)[C@@H]2CCCN2C1=O [Example 415] ({CH2CO}-[Cha][Bip][Bip(4'-NH)](X71)[Sar]HD[dR]IPV[Ala(imidazol-2-yl)]LCG-NH2; thioether N-13)
CC[C@H](C)[C@@H]1NC(=O)[C@@H]2CCCN2C(=O)[C@H]([C@@H](C)CC)NC(=O)[C@@H](CCCNC(=N)N)NC(=O)[C@H](CC(=O)O)NC(=O)[C@H](Cc2ccccc2)NC(=O)CN(C)C(=O)[C@H](Cc2ccc(-c3ccc(NC(=O)[C@H](Cc4cn(CC(=O)O)c5ccccc45)NC(C)=O)cc3)cc2)NC(=O)[C@H](Cc2ccc(-c3ccc(C(=O)O)cc3)cc2)NC(=O)[C@H](C(C)(C)C)NC(=O)CSC[C@@H](C(=O)NCC(N)=O)NC(=O)[C@H](CC(C)C)NC(=O)[C@H](Cc2ncc[nH]2)NC1=O [Example 416] ({CH2CO}-[Tle][Bip(4'-COOH)][Bip(4'-NH)](X11)[Sar]FD[dR]IPI[Ala(imidazol-2-yl)]LCG-NH2; thioether N-13)
CC[C@H](C)[C@@H]1NC(=O)[C@@H]2CCCN2C(=O)[C@H]([C@@H](C)CC)NC(=O)[C@@H](CCCNC(=N)N)NC(=O)[C@H](CC(=O)O)NC(=O)[C@H](Cc2ccccc2)NC(=O)CN(C)C(=O)[C@H](Cc2ccc(-c3ccc(NC(=O)[C@H](Cc4ccc(OCC(=O)O)cc4)NC(C)=O)cc3)cc2)NC(=O)[C@H](Cc2ccc(-c3ccc(C(=O)O)cc3)cc2)NC(=O)[C@H](C(C)(C)C)NC(=O)CSC[C@@H](C(=O)NCC(N)=O)NC(=O)[C@H](CC(C)C)NC(=O)[C@H](Cc2ncc[nH]2)NC1=O [Example 417] ({CH2CO}-[Tle][Bip(4'-COOH)][Bip(4'-NH)](X88)[Sar]FD[dR]IPI[Ala(imidazol-2-yl)]LCG-NH2; thioether N-13)
CC[C@H](C)[C@@H]1NC(=O)[C@@H]2CCCN2C(=O)[C@H]([C@@H](C)CC)NC(=O)[C@@H](CCCNC(=N)N)NC(=O)[C@H](CC(=O)O)NC(=O)[C@H](Cc2ccccc2)NC(=O)CN(C)C(=O)[C@H](Cc2ccc(-c3ccc(NC(=O)c4ccc5c(c4)Cc4ccccc4-5)cc3)cc2)NC(=O)[C@H](Cc2ccc(-c3ccc(C(=O)O)cc3)cc2)NC(=O)[C@H](C(C)(C)C)NC(=O)CSC[C@@H](C(=O)NCC(N)=O)NC(=O)[C@H](CC(C)C)NC(=O)[C@H](Cc2cnc[nH]2)NC1=O [Example 418] ({CH2CO}-[Tle][Bip(4'-COOH)][Bip(4'-NH)](X61)[Sar]FD[dR]IPIHLCG-NH2; thioether N-13)
CC[C@H](C)[C@@H]1NC(=O)C2CCCN2C(=O)[C@H]([C@@H](C)CC)NC(=O)[C@@H](CCCNC(=N)N)NC(=O)[C@H](CC(=O)O)NC(=O)[C@H](Cc2ccccc2)NC(=O)CN(C)C(=O)[C@H](Cc2ccc(-c3ccc(NC(=O)c4ccc5c(c4)CCc4ccccc4-5)cc3)cc2)NC(=O)[C@H](Cc2ccc(-c3ccc(C(=O)O)cc3)cc2)NC(=O)[C@H](C(C)(C)C)NC(=O)CSC[C@@H](C(=O)NCC(N)=O)NC(=O)[C@H](CC(C)C)NC(=O)[C@H](Cc2ncc[nH]2)NC1=O (some centres unmarked) [Example 419] ({CH2CO}-[Tle][Bip(4'-COOH)][Bip(4'-NH)](X60)[Sar]FD[dR]I[ξP]I[Ala(imidazol-2-yl)]LCG-NH2; thioether N-13)
CC[C@H](C)[C@@H]1NC(=O)[C@@H](CCCNC(=N)N)NC(=O)[C@H](CC(=O)O)NC(=O)[C@H](Cc2cnc[nH]2)NC(=O)CN(C)C(=O)[C@H](Cc2ccc(-c3ccc(NC(=O)[C@@H](N)Cc4cn(CC(=O)O)c5ccccc45)cc3)cc2)NC(=O)[C@H](Cc2ccc(-c3ccccc3)cc2)NC(=O)[C@H](CC2CCCCC2)NC(=O)CSC[C@@H](C(=O)NCC(N)=O)NC(=O)[C@H](CC(C)C)NC(=O)[C@H](Cc2ncc[nH]2)NC(=O)[C@H](C(C)C)NC(=O)C2CCCN2C1=O (some centres unmarked) [Example 420] ({CH2CO}-[Cha][Bip][Bip(4'-NH)](Trp(1-CH2COOH))[Sar]HD[dR]I[ξP]V[Ala(imidazol-2-yl)]LCG-NH2; thioether N-13)
CC[C@H](C)[C@@H]1NC(=O)C2CCCN2C(=O)[C@H]([C@@H](C)CC)NC(=O)[C@@H](CCCNC(=N)N)NC(=O)[C@H](CC(=O)O)NC(=O)[C@H](Cc2ccccc2)NC(=O)CN(C)C(=O)[C@H](Cc2ccc(-c3ccc(NC(=O)[C@@H](N)Cc4ccc(OCC(=O)O)cc4)cc3)cc2)NC(=O)[C@H](Cc2ccc(-c3ccc(C(=O)O)cc3)cc2)NC(=O)[C@H](C(C)(C)C)NC(=O)CSC[C@@H](C(=O)NCC(N)=O)NC(=O)[C@H](CC(C)C)NC(=O)[C@H](Cc2ncc[nH]2)NC1=O (some centres unmarked) [Example 421] ({CH2CO}-[Tle][Bip(4'-COOH)][Bip(4'-NH)](X81)[Sar]FD[dR]I[ξP]I[Ala(imidazol-2-yl)]LCG-NH2; thioether N-13)
CC[C@H](C)[C@@H]1NC(=O)[C@@H](CCCNC(=N)N)NC(=O)[C@H](CC(=O)O)NC(=O)[C@H](Cc2cnc[nH]2)NC(=O)CN(C)C(=O)[C@H](Cc2ccc(-c3ccc(NC(=O)c4cccc(OCC(=O)O)c4)cc3)cc2)NC(=O)[C@H](Cc2ccc(-c3ccc(C(=O)Nc4cccc(OCC(=O)O)c4)cc3)cc2)NC(=O)[C@H](CC2CCCCC2)NC(=O)CSC[C@@H](C(=O)NCC(N)=O)NC(=O)[C@H](CC(C)C)NC(=O)[C@H](Cc2ncc[nH]2)NC(=O)[C@H](C(C)C)NC(=O)C2CCCN2C1=O (some centres unmarked) [Example 422] ({CH2CO}-[Cha][X56][Bip(4'-NH)](Benzoyl(3-OCH2COOH))[Sar]HD[dR]I[ξP]V[Ala(imidazol-2-yl)]LCG-NH2; thioether N-13)
CC[C@H](C)[C@@H]1NC(=O)[C@@H](CCCNC(=N)N)NC(=O)[C@H](CC(=O)O)NC(=O)[C@H](Cc2cnc[nH]2)NC(=O)CN(C)C(=O)[C@H](Cc2ccc(-c3ccc(NC(=O)c4cccc(OCC(=O)O)c4)cc3)cc2)NC(=O)[C@H](Cc2ccc(-c3ccccc3)cc2)NC(=O)[C@H](CN2CCOCC2)NC(=O)CSC[C@@H](C(=O)NCC(N)=O)NC(=O)[C@H](CC(C)C)NC(=O)[C@H](Cc2cnc[nH]2)NC(=O)[C@H](C(C)C)NC(=O)[C@@H]2CCCN2C1=O [Example 441] ({CH2CO}-[Ala(morpholin-4-yl)][Bip][Bip(4'-NH)](Benzoyl(3-OCH2COOH))[Sar]HD[dR]IPVHLCG-NH2; thioether N-13)
CC[C@H](C)[C@@H]1NC(=O)[C@@H](CCCNC(=N)N)NC(=O)[C@H](CC(=O)O)NC(=O)[C@@H]2CCCN2C(=O)CN(C)C(=O)[C@H](Cc2ccc(-c3ccc(NC(=O)c4cccc(OCC(=O)O)c4)cc3)cc2)NC(=O)[C@H](Cc2ccc(-c3ccccc3)cc2)NC(=O)[C@H](CC2CCCCC2)NC(=O)CSC[C@@H](C(=O)NCC(N)=O)NC(=O)[C@H](CC(C)C)NC(=O)[C@H](Cc2cnc[nH]2)NC(=O)[C@H](C(C)C)NC(=O)[C@@H]2CCCN2C1=O [Example 442] ({CH2CO}-[Cha][Bip][Bip(4'-NH)](Benzoyl(3-OCH2COOH))[Sar]PD[dR]IPVHLCG-NH2; thioether N-13)
CC[C@H](C)[C@@H]1NC(=O)[C@@H](CCCNC(=N)N)NC(=O)[C@H](CC(=O)O)NC(=O)[C@H](Cc2cnc[nH]2)NC(=O)CN(C)C(=O)[C@H](Cc2ccc(-c3ccc(NC(=O)c4cc(C)cc(C(=O)O)c4)cc3)cc2)NC(=O)[C@H](Cc2ccc(-c3ccccc3)cc2)NC(=O)[C@H](CC2CCCCC2)NC(=O)CSC[C@@H](C(=O)NCC(N)=O)NC(=O)[C@H](CC(C)C)NC(=O)[C@H](Cc2cnc[nH]2)NC(=O)[C@H](C(C)C)NC(=O)[C@@H]2CCCN2C1=O [Example 443] ({CH2CO}-[Cha][Bip][X34][Sar]HD[dR]IPVHLCG-NH2; thioether N-13)
CC[C@H](C)[C@@H]1NC(=O)[C@@H](CCCNC(=N)N)NC(=O)[C@H](CC(=O)O)NC(=O)[C@H](Cc2cnc[nH]2)NC(=O)CN(C)C(=O)[C@H](Cc2ccc(-c3ccc(NC(=O)c4cccc(CC(=O)O)c4)cc3)cc2)NC(=O)[C@H](Cc2ccc(-c3ccccc3)cc2)NC(=O)[C@H](CC2CCCCC2)NC(=O)CSC[C@@H](C(=O)NCC(N)=O)NC(=O)[C@H](CC(C)C)NC(=O)[C@H](Cc2cnc[nH]2)NC(=O)[C@H](C(C)C)NC(=O)[C@@H]2CCCN2C1=O [Example 444] ({CH2CO}-[Cha][Bip][Bip(4'-NHCO-C6H4-3-CH2COOH)][Sar]HD[dR]IPVHLCG-NH2; thioether N-13)
